Assay results taken from PMC6390652 (Toxicological Sciences, 2018).

Key:
human GI microtissue = assay: MTT viability assay; type: cell-based; details: Caco-2, read-out: MTT IC50
Caco-2 cells = details: human

Caco-2 TEER IC15/Cmax (Caco-2 cells)	SMILES	IC50 (human GI microtissue) [µM]
	O=C(CCCN1CCC(O)(c2ccc(Cl)cc2)CC1)c1ccc(F)cc1 [Haloperidol]	90
129	CNCCCC12CCC(c3ccccc31)c1ccccc12 [Maprotiline]	65
